# Assay: Microsphere formation, size and appearance by light microscopy
# Type: physicochemical
# Conditions: 2 mg/ml paclitaxel
# Procedure: 4) DAS181+5 mM sodium citrate, pH 5.0+10% isopropanol; • Plastic microcentrifuge tubes containing the cocktails with ingredients as described in 1)-4) above were gradually cooled from: • (a) ambient temperature (about 25° C.) to 4° C. by placing the cocktails in a refrigerator, followed by: • (b) cooling to −20° C. by placing the resulting cocktail from (a) in a freezer, followed by: • (c) freezing to −80° C. by placing the resulting cocktail from b) in a freezer.
# Freezing to −80° C. is carried out to remove ingredients from the cocktail other than the microspheres (e.g., solvent, etc.) by freeze-drying. Cocktail 4) was prepared in triplicate, two aliquots in plastic tubes and one in a glass tube. One aliquot (in a plastic tube) was cooled as described above, while the two other aliquots (one in a plastic tube and one in a glass tube) were subjected to snap cooling/freezing by dipping the tubes into liquid nitrogen.
# Upon freezing, all tubes were placed into the lyophilizer and the volatiles (water and isopropanol) were removed by sublimation, leaving the dry pellets.
# The dry pellets recovered from the cocktails treated as described above, were tested for the presence of microspheres.
# DAS181 was purified and used to prepare microspheres as described above in Example 1 (see cocktail 4)), using a combination of DAS181 protein (10 mg/ml), citrate counterion (sodium citrate, 5 mM) and isopropanol organic solvent (10%, 20% or 30%). The resulting cocktail solutions were cooled from ambient temperature (about 25° C.) to 4° C., followed by cooling to −20° C., followed by freezing to −80° C., as described in Example 1. Upon freezing to −80° C., the tubes are placed in a lyophilizer and the volatiles (water and isopropanol) were removed by sublimation, leaving the dry powder containing microspheres.
# DAS181 was purified and used to prepare microspheres as described above in Example 1 (see cocktail 4)), using a combination of DAS181 protein (5 mg/ml or 10 mg/ml), citrate counterion (sodium citrate, 5 mM) and isopropanol (5% or 20%). […]
smiles,measurement,setting,value
CC(=O)O[C@H]1C(=O)[C@@]2(C)[C@H]([C@H](OC(=O)c3ccccc3)[C@]3(O)C[C@H](OC(=O)[C@H](O)[C@@H](NC(=O)c4ccccc4)c4ccccc4)C(C)=C1C3(C)C)[C@]1(OC(C)=O)CO[C@@H]1C[C@@H]2O [Paclitaxel],solvent concentration forming the best microspheres,"solvent DMSO, 2 mM Na-citrate buffer pH 5.0",50%
same,solvent concentration forming the best microspheres,"solvent isopropanol, 2 mM Na-citrate buffer pH 5.0 as antisolvent/counterion",50%
same,solvent concentration forming the best microspheres,"solvent t-butanol, 2 mM Na-citrate buffer pH 5.0",90%

# Source: patent US20190060239A1, “Technology for the Preparation of Microparticles” (Ansun Biopharma, Inc., priority 2007, published 2019)
